{"source": "the supplement of paper PMC5770031", "note": "The other results are listed elsewhere or left out. Repeats in this data set agree poorly, so a single value says little.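 ATM8/balancer (normal ATM) heterozygous flies were crossed on treated food; parents laid eggs 5–6 days, offspring developed ~12 days, so parents and larvae ingested compound. Readout: fraction of emerged adults homozygous for ATM8 versus 2% DMSO controls. Compounds were neutral at 10–20% homozygotes, harmful below 10%, helpful above 20%.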"}
{"system": "Drosophila melanogaster ATM8 (temperature-sensitive ATM allele)", "assay": "fraction of eclosed F1 progeny that are homozygous ATM8 (rescue of developmental lethality); higher = more rescue of ATM8 developmental lethality; extreme values may be limits of the assay", "conditions": "compound concentration applied to food 0.2 mM; 21 °C"}
{"smiles": "COc1ccc(Cc2nccc3cc(OC)c(OC)cc23)cc1OC", "fraction of eclosed F1 progeny that are homozygous ATM8": 0.0488}
{"smiles": "c1ccc(C2CN3CCSC3=N2)cc1", "note": "(stereo unspecified)", "fraction of eclosed F1 progeny that are homozygous ATM8": 0.0417}
{"smiles": "C=C1c2cccc(O)c2C(=O)C2=C(O)[C@]3(O)C(=O)C(C(N)=O)=C(O)[C@@H](N(C)C)[C@@H]3[C@@H](O)[C@H]12", "fraction of eclosed F1 progeny that are homozygous ATM8": 0.0962}
{"smiles": "Cc1scc2c1N(C(=O)CN1CCN(C)CC1)c1ccccc1NC2=O", "fraction of eclosed F1 progeny that are homozygous ATM8": 0.175}
{"smiles": "COc1cc(C(=O)O)cc(OC)c1O", "fraction of eclosed F1 progeny that are homozygous ATM8": 0.0952}
{"smiles": "COc1cc2c(c(OC)c1OC)-c1ccc(=O)c(O)cc1[C@@H](NC(C)=O)CC2", "fraction of eclosed F1 progeny that are homozygous ATM8": 0}
{"smiles": "CC(COc1ccccc1)N(CCCl)Cc1ccccc1", "note": "(stereo unspecified)", "fraction of eclosed F1 progeny that are homozygous ATM8": 0.0455}
{"smiles": "Nc1ncn([C@@H]2O[C@H](CO)[C@@H](O)[C@H]2O)c(=O)n1", "fraction of eclosed F1 progeny that are homozygous ATM8": 0.13}
{"smiles": "CCCNC(C)C(=O)Nc1ccccc1C", "note": "(stereo unspecified)", "fraction of eclosed F1 progeny that are homozygous ATM8": 0.194}
{"smiles": "CC(=O)c1ccc(S(=O)(=O)NC(=O)NC2CCCCC2)cc1", "fraction of eclosed F1 progeny that are homozygous ATM8": 0.0244}
{"smiles": "O=C(NCc1ccccc1)OCCO", "fraction of eclosed F1 progeny that are homozygous ATM8": 0.0676}
{"smiles": "OC[C@H]1O[C@H]([S-])[C@H](O)[C@@H](O)[C@@H]1O.[Au+]", "fraction of eclosed F1 progeny that are homozygous ATM8": 0.229}
{"smiles": "CCC1(CC)C(=O)C=CNC1=O", "fraction of eclosed F1 progeny that are homozygous ATM8": 0.148}
{"smiles": "Cc1nc2ccccc2n1Cc1ccc(Cl)cc1", "fraction of eclosed F1 progeny that are homozygous ATM8": 0.111}
{"smiles": "Cc1cc(=O)oc2cc(O)ccc12", "fraction of eclosed F1 progeny that are homozygous ATM8": 0.205}
{"smiles": "CN(C)CCN(Cc1cccs1)c1ccccn1", "fraction of eclosed F1 progeny that are homozygous ATM8": 0.041}
{"smiles": "NC(CO)(CO)CO", "fraction of eclosed F1 progeny that are homozygous ATM8": 0.156}
{"smiles": "COc1ccc([C@H]2COc3c(ccc(O)c3OC)C2)c(OC)c1O", "fraction of eclosed F1 progeny that are homozygous ATM8": 0.117}
{"smiles": "COc1ccc2c(c1)OCc1c-2oc2cc(OC)ccc12", "fraction of eclosed F1 progeny that are homozygous ATM8": 0.0385}
{"smiles": "NCCC[C@H](N)C(=O)O", "fraction of eclosed F1 progeny that are homozygous ATM8": 0.147}
{"smiles": "NC(=O)N1c2ccccc2C=Cc2ccccc21", "fraction of eclosed F1 progeny that are homozygous ATM8": 0.0857}
{"smiles": "O=C(NC(=O)c1c(F)cccc1F)Nc1cc(Cl)c(OC(F)(F)C(F)C(F)(F)F)cc1Cl", "note": "(stereo unspecified)", "fraction of eclosed F1 progeny that are homozygous ATM8": 0.355}
{"smiles": "CNCC(=O)c1ccc(O)c(O)c1", "fraction of eclosed F1 progeny that are homozygous ATM8": 0.2}
{"smiles": "CCOc1cccc(C(=O)c2ccc(O)c(O)c2O)c1", "fraction of eclosed F1 progeny that are homozygous ATM8": 0.037}
{"smiles": "COc1cc2c(cc1OC)[C@H](C)NCC2", "fraction of eclosed F1 progeny that are homozygous ATM8": 0.138}
{"smiles": "CC(=O)OCC(COC(C)=O)OC(C)=O", "fraction of eclosed F1 progeny that are homozygous ATM8": 0.13}
{"smiles": "CC(C)(C)NCC(O)c1cc(Cl)c(N)c(Cl)c1", "note": "(stereo unspecified)", "fraction of eclosed F1 progeny that are homozygous ATM8": 0.245}
{"smiles": "C[C@H](N)Cc1ccccc1", "fraction of eclosed F1 progeny that are homozygous ATM8": 0.157}
{"smiles": "COc1cc2c(cc1OC)[C@@]13CCN4CC5=CCO[C@H]6CC(=O)N2[C@H]1[C@H]6[C@H]5C[C@H]43", "fraction of eclosed F1 progeny that are homozygous ATM8": 0.147}
{"smiles": "COc1cc2ccc(=O)oc2c(OC)c1OC", "fraction of eclosed F1 progeny that are homozygous ATM8": 0.195}
{"smiles": "O=C1CN2Cc3c(ccc(Cl)c3Cl)N=C2N1", "fraction of eclosed F1 progeny that are homozygous ATM8": 0.0213}
{"smiles": "C#CCCCCCCCCCCCC(O)CC(O)CO", "note": "(stereo unspecified)", "fraction of eclosed F1 progeny that are homozygous ATM8": 0.133}
{"smiles": "Nc1nc(=S)c2ncn([C@@H]3O[C@H](CO)[C@@H](O)[C@H]3O)c2[nH]1", "fraction of eclosed F1 progeny that are homozygous ATM8": 0.0517}
{"smiles": "C=C(C)[C@H]1Cc2c(ccc3c2O[C@@H]2COc4cc(OC)c(OC)cc4[C@@H]2C3=O)O1", "fraction of eclosed F1 progeny that are homozygous ATM8": 0.25}
{"smiles": "CC(C)NCC(O)COc1ccc(COCCOC(C)C)cc1", "note": "(stereo unspecified)", "fraction of eclosed F1 progeny that are homozygous ATM8": 0.185}
{"smiles": "COc1c2ccoc2nc2c(OC)c(OCC(O)C(C)(C)O)ccc12", "note": "(stereo unspecified)", "fraction of eclosed F1 progeny that are homozygous ATM8": 0.353}
{"smiles": "Nc1nc(=O)c2nc(CNc3ccc(C(=O)N[C@@H](CCC(=O)O)C(=O)O)cc3)cnc2[nH]1", "fraction of eclosed F1 progeny that are homozygous ATM8": 0.115}
{"smiles": "CC(=O)N[C@@H](CC(C)C)C(=O)O", "fraction of eclosed F1 progeny that are homozygous ATM8": 0.0889}
{"smiles": "O=C([O-])[C@H]1/C(=C/CO)O[C@@H]2CC(=O)N21.[Li+]", "fraction of eclosed F1 progeny that are homozygous ATM8": 0.205}
{"smiles": "Nc1ccc2cc3ccc(N)cc3nc2c1", "fraction of eclosed F1 progeny that are homozygous ATM8": 0.08}
{"smiles": "C[C@H](CCC(=O)O)[C@H]1CC[C@H]2[C@@H]3CC[C@@H]4C[C@H](O)CC[C@]4(C)[C@H]3C[C@H](O)[C@]12C", "fraction of eclosed F1 progeny that are homozygous ATM8": 0.114}
{"smiles": "CCC1(c2ccc(N)cc2)CCC(=O)NC1=O", "note": "(stereo unspecified)", "fraction of eclosed F1 progeny that are homozygous ATM8": 0}
{"smiles": "COc1ccc2cc(C(C)C(=O)O)ccc2c1", "note": "(stereo unspecified)", "fraction of eclosed F1 progeny that are homozygous ATM8": 0.0536}
{"smiles": "Cc1cc(CC(=O)O)n(C)c1C(=O)c1ccc(Cl)cc1", "fraction of eclosed F1 progeny that are homozygous ATM8": 0.132}
{"smiles": "COC(=O)CC[C@@H](C)[C@H]1CC[C@H]2[C@@H]3[C@H](O)C[C@@H]4C[C@H](O)CC[C@]4(C)[C@H]3C[C@H](O)[C@]12C", "fraction of eclosed F1 progeny that are homozygous ATM8": 0.0811}
{"smiles": "COc1c(O)cccc1O", "fraction of eclosed F1 progeny that are homozygous ATM8": 0.233}
{"smiles": "CC(=O)Nc1ncc([N+](=O)[O-])s1", "fraction of eclosed F1 progeny that are homozygous ATM8": 0}
{"smiles": "CC12CCC(CC1)C(C)(C)O2", "fraction of eclosed F1 progeny that are homozygous ATM8": 0.17}
{"smiles": "CC(=O)O[C@@H]1CC2C(C)(C)C(=O)C3OC3[C@]2(C)C2CC[C@@]3(C)[C@H](c4ccoc4)OC(=O)C4OC43[C@@]21C", "note": "(stereo partly specified)", "fraction of eclosed F1 progeny that are homozygous ATM8": 0.111}
{"smiles": "CCN(C)C(=O)Oc1cccc([C@H](C)N(C)C)c1", "fraction of eclosed F1 progeny that are homozygous ATM8": 0.0541}
{"smiles": "Nc1ccc(S(=O)(=O)Nc2ccnn2-c2ccccc2)cc1", "fraction of eclosed F1 progeny that are homozygous ATM8": 0.152}
